PubChem BioAssay AID1259331 – Drosophila RNAi Screening Center, 2017
The deposit covers about 3,100 reagents; below is a random part of them. 126 of all reagents (4.1%) were called active. 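Calls are per reagent; zinc was so toxic that few knock-downs lowered ATP further, so most hits raise ATP.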 Raw values vary from plate to plate and are shown uncorrected. Entries without a mark were called inactive. Not given: the amount of reagent.

Aim: 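Knock-downs that alter ATP level after a high zinc chloride dose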 (primary screen)
System: Drosophila S2R+ cells
Knock-down reagent: long dsRNA against Drosophila genes
Timing: 5 days (4 days knock-down, then 1 day zinc)
Conditions: zinc chloride at 15 mM final level for 1 day
Measurement: 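Luminescent ATP assay standing in for viability; Z score is the mean over three replicate plates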
Scale: mean Z score: higher = more ATP than other wells, better survival under zinc; ATP luminescence: higher = more ATP, more viable cells
Call rule: 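Hit when the absolute Z score is greater than 1.5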
Calls: active = hit, ATP up or down; inactive = not a hit

For Itgbn (Integrin betanu subunit) [DRSC03493], the values are mean Z score 0.155; ATP luminescence, replicate 1 = 54368; ATP luminescence, replicate 2 = 35050.
Knock-down of Itgbn (Integrin betanu subunit) [DRSC39788] came out at: mean Z score -0.451; ATP luminescence, replicate 1 = 49315; ATP luminescence, replicate 2 = 50429.
PIG-T (Phosphatidylinositol glycan anchor biosynthesis class T) [DRSC17774] scored mean Z score -0.28; ATP luminescence, replicate 1 = 58557; ATP luminescence, replicate 2 = 64319.
Against PIG-T (Phosphatidylinositol glycan anchor biosynthesis class T) [DRSC39821], the entry reads mean Z score 0.19; ATP luminescence, replicate 1 = 58574; ATP luminescence, replicate 2 = 59260.
Against CG13384 [DRSC02258] the deposit lists mean Z score -0.28; ATP luminescence, replicate 1 = 52446; ATP luminescence, replicate 2 = 52075.

Reformatted: results already given.
Itgbn (Integrin betanu subunit) [DRSC03493]
- mean Z score: 0.155
- ATP luminescence, replicate 1: 54368
- ATP luminescence, replicate 2: 35050

Itgbn (Integrin betanu subunit) [DRSC39788]
- mean Z score: -0.451
- ATP luminescence, replicate 1: 49315
- ATP luminescence, replicate 2: 50429

More entries follow:
Against Dh31-R (Diuretic hormone 31 Receptor) [DRSC06669], the entry reads mean Z score -0.244; ATP luminescence, replicate 1 = 61935; ATP luminescence, replicate 2 = 65742.
With knock-down of Dh31-R (Diuretic hormone 31 Receptor) [DRSC23417], the screen gave mean Z score 0.323; ATP luminescence, replicate 1 = 64799; ATP luminescence, replicate 2 = 67966.
Knock-down of Mgat2 [DRSC16347] resulted in: mean Z score 1.5; ATP luminescence, replicate 1 = 66463; ATP luminescence, replicate 2 = 60186.
For Mgat2 [DRSC29105], the values are mean Z score -1.22; ATP luminescence, replicate 1 = 45388; ATP luminescence, replicate 2 = 39612.
With knock-down of DopEcR (Dopamine/Ecdysteroid receptor) [DRSC08529] the results were mean Z score -0.922; ATP luminescence, replicate 1 = 21423; ATP luminescence, replicate 2 = 28005.
For eca (eclair) [DRSC22290] the deposit lists mean Z score -0.223; ATP luminescence, replicate 1 = 47806; ATP luminescence, replicate 2 = 45525.
Silencing of PGAP2 (Post-GPI attachment to proteins 2) [DRSC00632] gave: mean Z score 0.48; ATP luminescence, replicate 1 = 62433; ATP luminescence, replicate 2 = 63582.
PGAP2 (Post-GPI attachment to proteins 2) [DRSC28496] gave mean Z score 0.165; ATP luminescence, replicate 1 = 64439; ATP luminescence, replicate 2 = 63427.
ppk27 (pickpocket 27) [DRSC22211] showed mean Z score -0.0061; ATP luminescence, replicate 1 = 48354; ATP luminescence, replicate 2 = 47440.
Silencing of fz4 (frizzled 4) [DRSC18780] gave: mean Z score -0.723; ATP luminescence, replicate 1 = 52624; ATP luminescence, replicate 2 = 55539.
For Zip88E (Zinc/iron regulated transporter-related protein 88E) [DRSC15562] the deposit lists mean Z score -0.17; ATP luminescence, replicate 1 = 35318; ATP luminescence, replicate 2 = 58421.
Against Zip88E (Zinc/iron regulated transporter-related protein 88E) [DRSC25826], the values are mean Z score 0.0359; ATP luminescence, replicate 1 = 56499; ATP luminescence, replicate 2 = 57219.
